Our source for the cell number change and AC50 values is PubChem BioAssay AID2685 (National Center for Advancing Translational Sciences (NCATS), 2010).

The list shows a part of the results. Shown are side measurements of this screen, not its main read-out; they come without a call. Compounds called inactive in the main read-out are mostly missing here. The note in brackets gives the kind of curve behind each potency; many fits are weak.

This assay in a line: qHTS Assay for Lipid Storage Modulators in Drosophila S3 Cells.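 As to cell number change: cells counted by Cell Tracker Red CMTPX staining in the red channel.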 Particulars: BODIPY lipid droplet fluorescence, 18-24 h; for cell number change: measured here: cell count max response, cells fed with added oleic acid. In a few lines:
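Drosophila S3 cells got compounds at several concentrations plus oleic acid (400 uM solution). Laser-scanning cytometry with 488 nm excitation read lipid droplets at 500-530 nm and cells at 575-640 nm. Percent activity was relative to 20 uM Triacsin C.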
A general note: qHTS replaces the single test concentration by a dilution series.

Where [1] appears, read: measured here: lipid fluorescence (Fed channel) AC50, cells fed with added oleic acid.
The mark [2] stands for this setting: measured here: cell number channel AC50, cells fed with added oleic acid.

As for `CCOC(=O)C1CCN(S(=O)(=O)c2ccccc2)CC1`, the cell number change was -18.8%. The half-maximal activity concentration (AC50) under setting [1] is 6.51 µM [falling, single point].
As to `Cc1ccccc1N=Nc1c(C)[nH]n(C(N)=S)c1=O`, the cell number change turned out to be 3.68%. Moreover, the AC50 under setting [1] was 2.06 µM [rising, full curve, poor fit].
In the case of `CC(=Nc1ccccc1C)C1=C(O)CSC1=O`, under setting [2], the concentration at half-maximal activity (AC50) is 0.092 µM [falling, full curve, poor fit].
For `O=C(O)c1cc(-c2ccc(O)cc2)nc2ccccc12`, the cell number change is -86%. Further, under setting [2], the AC50 was 14.6 µM [falling, partial curve, poor fit]. For the same molecule, the AC50 under setting [1] was 6.51 µM [falling, single point].
For `CCN(CC(=O)NCc1cccs1)C(=O)c1cc(S(=O)(=O)NCc2ccccc2)ccc1C`, the cell number change is -43.4%.
For the molecule `CCOc1cc2nc(-c3ccc(OC)c(OC)c3)nc(NCCCN3CCOCC3)c2cc1OC`, the AC50 is 0.731 µM [rising, single point] under setting [2] and 0.92 µM [rising, full curve] under setting [1].
On to `CCOC(=O)CCC(NC(=O)CCCC(=O)NC(CCC(=O)OCC)C(=O)OCC)C(=O)OCC` (centres undefined), for which the cell number change is -2.55%. Besides, the AC50 under setting [1] was 9.2 µM [falling, partial curve, poor fit].
For the molecule `CCc1ccccc1NC(=O)CN1CCN(C(=O)CNC(=O)c2ccc(N3CCCC3=O)cc2)CC1`, the cell number change turned out to be 12.9%. The half-maximal activity concentration (AC50) under setting [2] was 2.59 µM [falling, partial curve]. In addition, under setting [1], the AC50 is 2.06 µM [falling, partial curve, poor fit].
On to `O=C(CN1CCN(c2ccccc2)CC1)Nc1ccc2c(c1)OCCO2`, for which the cell number change amounted to 49.3%. Besides, the AC50 under setting [2] was 29.1 µM [rising, single point]. Besides, under setting [1], the AC50 is 29.1 µM [rising, single point].
With `O=C(Nc1ccccc1-c1nnn(CC(=O)N2CCc3ccccc3C2)n1)C1CCC1`, the cell number change is -5.99%. Also, the AC50 under setting [1] is 18.4 µM [falling, single point].
Regarding `O=C(NCC1CC1)Nc1cccc(Cl)c1`, the cell number change was 15.3%.
Turning to `Cc1cccn2c(=O)c(C=Nc3ccccc3)c(NCCO)nc12`, the cell number change was -5.66%. Besides, the AC50 under setting [1] is 18.4 µM [rising, single point].
For `Cc1ccc(OC(=O)c2c(C)nn(-c3ccccc3)c2C)cc1`, the cell number change is -36.3%. In addition, the AC50 under setting [2] was 32.6 µM [falling, single point]. Also, the concentration at half-maximal activity (AC50) under setting [1] is 0.164 µM [falling, full curve, poor fit].
As for `O=C(Nc1ccc2c(c1)OCCO2)C1CC1c1ccccc1` (centres undefined), the cell number change came to 74.8%. Moreover, the half-maximal activity concentration (AC50) under setting [2] was 13 µM [rising, partial curve]. Under setting [1], the concentration at half-maximal activity (AC50) was 18.4 µM [rising, partial curve].
Turning to `CCC1Oc2ccc(C)cc2N(CC(=O)NC2CCCCC2)C1=O` (centres undefined), the cell number change came out at 8.82%. Further, under setting [1], the concentration at half-maximal activity (AC50) is 0.231 µM [rising, full curve, poor fit].
For `O=C(C1=C(c2ccccc2)C(=O)c2ccccc2C1=O)c1ccccc1`, the cell number change is -30.7%. The AC50 under setting [2] was 32.6 µM [falling, single point]. In addition, the AC50 under setting [1] is 32.6 µM [falling, single point].
For the molecule `Cc1ccc(C)c(N(CC(=O)NCCc2ccccc2)C(=O)CCC(=O)Nc2ccccn2)c1`, the cell number change was -15.7%. For the same molecule, the AC50 under setting [1] is 6.51 µM [falling, single point].
With `COc1ccccc1C/C(N)=N/OC(=O)/C=C/c1ccccc1`, the cell number change stood at 42.3%. Under setting [2], the half-maximal activity concentration (AC50) was 4.61 µM [rising, full curve, poor fit]. Moreover, under setting [1], the AC50 is 3.26 µM [rising, full curve].
Regarding `O=C(CN(c1ccc(F)cc1)S(=O)(=O)c1ccccc1)NC1CCCCCC1`, the cell number change was -5.87%. Further, the half-maximal activity concentration (AC50) under setting [1] is 7.31 µM [falling, single point].
As to `CCOc1ccc2c(c1)C(=O)C(=O)N2CC1COc2ccccc2O1` (centres undefined), the cell number change is -10.6%. Further, the AC50 under setting [2] is 3.26 µM [rising, single point]. Also, under setting [1], the half-maximal activity concentration (AC50) was 6.51 µM [rising, partial curve, poor fit].
As for `CCOC(=O)c1cc(CC)sc1NC(=O)COC(=O)c1cnccn1`, the cell number change was -17.6%. Also, the concentration at half-maximal activity (AC50) under setting [1] is 0.651 µM [falling, partial curve, poor fit].
For `COc1nc2ccccc2nc1N1CCN(Cc2ccc3c(c2)OCO3)CC1`, the cell number change was found to be 50%. Under setting [2], the half-maximal activity concentration (AC50) is 11.6 µM [rising, partial curve, poor fit].
Turning to `Cc1cc(N2CCN(C/C=C/c3ccccc3)CC2)n2ncnc2n1`, the cell number change was -30.6%. The half-maximal activity concentration (AC50) under setting [2] was 0.82 µM [falling, full curve, poor fit]. The concentration at half-maximal activity (AC50) under setting [1] is 10.3 µM [falling, partial curve].
For `COc1ccc(CCn2c(C)c(C(C)=O)c3cc(OC(=O)c4ccco4)ccc32)cc1OC`, the cell number change is 19.2%. Further, under setting [1], the AC50 was 3.26 µM [rising, partial curve].
In the case of `COC(=O)CNC(=O)c1cccs1`, the cell number change was -25.4%. The AC50 under setting [2] is 0.00461 µM [falling, full curve, poor fit]. The concentration at half-maximal activity (AC50) under setting [1] was 0.0092 µM [falling, full curve, poor fit].
For the molecule `CN(CC(=O)Nc1ccc(F)cc1)C(=O)CSc1nccn1C`, the cell number change came to 2.01%.
Same read-out and setting: for `Cc1cccc(OCC(=O)Nc2ccccc2-c2ccccc2)c1` the value was 5.8%.
As for `O=C(CCNC(=O)c1ccc(Br)cc1)Nc1nccs1`, the AC50 under setting [2] was 0.13 µM [rising, full curve, poor fit] and the half-maximal activity concentration (AC50) under setting [1] was 0.116 µM [rising, full curve, poor fit].
As to `NC(=O)c1ccc(NCC2CCCO2)c([N+](=O)[O-])c1` (centres undefined), the AC50 under setting [1] was 35.5 µM [rising, single point].
Regarding `CC(C)C[C@@H](CN(N=O)[C@@H](Cc1ccccc1)CN(C)N=O)N(CCc1ccccc1)N=O`, the cell number change is 13.2%. Also, the half-maximal activity concentration (AC50) under setting [1] was 0.0651 µM [rising, full curve, poor fit].
As to `NS(=O)(=O)c1ccc(CNS(=O)(=O)c2cc(C(=O)O)ccc2Cl)cc1`, the cell number change is -5.54%. Also, the AC50 under setting [1] was 18.4 µM [falling, single point].
For the molecule `N#Cc1ccc(C(=O)OCCc2cc3ccccc3c(=O)o2)cc1`, the cell number change is -15.6%. Further, the AC50 under setting [1] is 9.2 µM [falling, single point].
On to `Cc1ccc(C)c(S(=O)(=O)NCc2ccc(C(=O)N3CCN(c4ccccc4)CC3)cc2)c1`, for which the cell number change is -31.4%. In addition, the half-maximal activity concentration (AC50) under setting [2] was 20.6 µM [falling, single point]. Under setting [1], the concentration at half-maximal activity (AC50) is 7.31 µM [falling, partial curve].
Take `COc1ccc(-n2c(Cc3cccn3C)nnc2SCC(=O)Nc2cc(C)cc(C)c2)cc1`: the cell number change came to 6.97%.
The same measure, in the same setting: for `O=C(Cc1ccccc1)Nc1nnc(-c2ccccc2)o1` the value was 23.4%.
With `CN(C)c1ccc(P(=O)(COc2ccc([N+](=O)[O-])cc2)c2ccc(N(C)C)cc2)cc1`, the cell number change is 5.53%. Besides, the half-maximal activity concentration (AC50) under setting [1] is 0.103 µM [rising, full curve, poor fit].
With `N#Cc1ccccc1Cn1c(=O)n(Cc2ccc(C(=O)NCc3ccco3)cc2)c(=O)c2ccccc21`, the cell number change is -28%. For the same molecule, the AC50 under setting [1] is 23.1 µM [falling, single point].
Take `CCN(CC)C(=O)c1[nH]cnc1C(=O)NCC(=O)OCc1ccccc1`: the cell number change was 2.1%.
In the case of `Cc1cc(NC(=O)Cn2c(=O)oc3ccccc32)no1`, the cell number change came to 14.3%. Under setting [1], the AC50 was 0.058 µM [rising, full curve, poor fit].
Take `Cc1noc(C)c1CSCC(=O)N(C)CC(=O)Nc1ccccc1Br`: the concentration at half-maximal activity (AC50) under setting [2] is 6.51 µM [rising, single point].
Take `COc1ccccc1NC(=O)Cn1c(C)cc(=O)c2cccc(OC)c21`: the cell number change was -11.5%. The AC50 under setting [1] was 11.6 µM [falling, partial curve].
Turning to `COc1ccc(/C(C)=N/NC(=S)NCc2ccco2)cc1`, the cell number change was -7.29%.
As to `CCOC(=O)C1=C(O)/C(=C\c2ccc(O)c(OCC)c2)N=C1C`, the cell number change came to 11.8%. The half-maximal activity concentration (AC50) under setting [2] is 4.11 µM [rising, single point].
Consider `CC1Cc2cc(/C=C3/SC(N4CCC(C(N)=O)CC4)=NC3=O)ccc2O1` (centres undefined), for which the cell number change was -8.19%. In addition, the half-maximal activity concentration (AC50) under setting [1] is 0.461 µM [rising, full curve, poor fit].
As to `CCOC(=O)c1cnn(-c2nc(OCC)cc(OCC)n2)c1C`, the cell number change is 3.37%.
For `CC(Sc1nnnn1-c1ccc(Cl)cc1)C(=O)NCC(=O)Nc1ccc(F)c(F)c1F` (centres undefined), the concentration at half-maximal activity (AC50) runs as follows: under setting [2], 1.03 µM [rising, full curve]; under setting [1], 14.6 µM [rising, single point].
On to `Cn1nc(C(F)(F)F)c2cc(C(=O)Nc3ccc(C(F)(F)F)cc3)sc21`, for which the cell number change is -39.3%. Under setting [2], the concentration at half-maximal activity (AC50) was 29.1 µM [falling, single point]. Further, under setting [1], the AC50 was 0.731 µM [rising, single point].
Take `Cc1cc(CN2CCN(CCC#N)CC2)c(O)c(C2(C)CCCCC2)c1`: the AC50 by setting is: under setting [2], 2.59 µM [rising, partial curve]; under setting [1], 1.03 µM [rising, partial curve].
Consider `Clc1cccc(COn2c(-c3ccc(Cl)cc3Cl)nc3ncccc32)c1`, for which the cell number change is -18.3%.
Turning to `C=CCn1cccc(C(=O)Nc2ccc(F)cc2)c1=O`, the cell number change worked out at 10%. For the same molecule, the AC50 under setting [1] is 0.0651 µM [rising, full curve, poor fit].
As for `O=C(NC1CCCCCCC1)c1cc(-c2ccccn2)nc2ccccc12`, the cell number change is 7.06%. Moreover, under setting [2], the concentration at half-maximal activity (AC50) is 0.0231 µM [falling, full curve, poor fit]. Under setting [1], the half-maximal activity concentration (AC50) is 2.31 µM [falling, partial curve].
For the molecule `O=C(CCc1ccc(S(=O)(=O)N2CCOCC2)cc1)N1CCc2ccccc2C1`, the cell number change came to 42.1%. The half-maximal activity concentration (AC50) under setting [2] was 29.1 µM [rising, partial curve, poor fit].
For the molecule `COC(=O)Cn1c(=NC(=O)c2ccc(OC)c(OC)c2)sc2cc(OC)ccc21`, the cell number change is -50%. For the same molecule, under setting [2], the AC50 was 29.1 µM [falling, single point].
For `Cn1cccc1C(=O)NCCc1ccccc1`, the cell number change stood at 7.14%. Also, the concentration at half-maximal activity (AC50) under setting [1] was 6.51 µM [rising, partial curve, poor fit].
Regarding `CCOC(=O)C1=C(COC(=O)CSc2ccc(C)cc2C)NC(=O)NC1C` (centres undefined), the cell number change was -50%. Also, the AC50 under setting [2] is 29.1 µM [falling, single point]. Moreover, under setting [1], the AC50 was 29.1 µM [rising, single point].
Consider `COc1ccc(C(=O)NNC(=O)C2CCN(S(=O)(=O)c3ccc(C)cc3)CC2)cc1`, for which the cell number change worked out at 15.8%.
With `C(=N\N1CCN(Cc2ccccc2)CC1)/c1ccccc1`, the cell number change was -10.3%. Besides, under setting [1], the AC50 is 2.06 µM [rising, partial curve].

In general, AC50 refers to the concentration at which the activity in the assay is half-maximal. Higher therefore signals weaker potency.
